These are yes or no findings as the source states them, for the method shown. In cells and extracts the contact can be indirect. Here binding means that the protein was enriched with, or labelled near, the bait; the list need not be complete.

The target of the assay is SARS-CoV-2 RdRp complex (Flag-nsp12, Flag-nsp7 and Flag-nsp8 co-expressed) (SARS-CoV-2) (UniProt P0DTD1). Kind of assay: affinity purification with mass spectrometry.

B1: ETFA, endogenous (protein, UniProt P13804 20-333)
chain: QSTLVIAEHANDSLAPITLNTITAATRLGGEVSCLVAGTKCDKVAQDLCKVAGIAKVLVAQHDVYKGLLPEELTPLILATQKQFNYTHICAGASAFGKNLLPRVAAKLEVAPISDIIAIKSPDTFVRTIYAGNALCTVKCDEKVKVFSVRGTSFDAAATSGGSASSEKASSTSPVEISEWLDQKLTKSDRPELTGAKVVVSGGRGLKSGENFKLLYDLADQLHAAVGASRAAVDAGFVPNDMQVGQTGKIVAPELYIAVGISGAIQHLAGMKDSKTIVAINKDPEAPIFQVADYGIVADLFKVVPEMTEILKKK
With B1, the binding entry is on record as “binds”.

The values are drawn from paper PMC9793359.
